The values that follow come from PubChem BioAssay AID272 (DTP/NCI, 2004).

This assay concerns Lewis lung carcinoma i.m., BDF1 mice, T/C %. Kind of assay: NCI In Vivo Anticancer Drug Screen. Data for tumor model Lewis Lung Carcinoma (intramuscular) in B6D2F1 (BDF1) mice. The procedure, abridged:
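Antitumour activity is assessed in transplanted-tumour mice. Endpoint is survival or tumour size, normalised to vehicle-dosed controls (T/C).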

Where [1] appears, read: T/C endpoint: mean tumor weight, dose: 4.0 mg/kg/injection, schedule: Q01DX011 (ip), vehicle: saline, higher T/C = larger tumour.
[2] abbreviates: T/C endpoint: median survival time, dose: 4.0 mg/kg/injection, schedule: Q01DX011 (ip), vehicle: saline, higher T/C = longer survival.
Setting [3] is: T/C endpoint: median survival time, dose: 8.0 mg/kg/injection, schedule: Q01DX011 (ip), vehicle: saline, higher T/C = longer survival.
The mark [4] stands for this setting: T/C endpoint: median survival time, dose: 50.0 mg/kg/injection, schedule: Q01DX011 (ip), vehicle: saline with Tween-80, higher T/C = longer survival.

The list shows only some results of the screen, not a fair sample: it gathers tests that were run many times, whatever their T/C, doses with no T/C, and many T/C values between a quarter and a half above the control. Further doses and runs are listed elsewhere. T/C: endpoint of the treated group in % of that of the vehicle group. Some entries give survivors of the animals treated and no T/C: the source files T/C as zero there, which appears to mark a toxic dose or a test without result, not a measured value. Some survivor counts are full or nearly so, which does not show that the dose was tolerated: survival well below the control is almost never listed, so the zero probably covers shortened survival too. Survivors were counted at the toxicity check, usually on the fifth day, unless a day is given; later deaths do not show. Schedule codes are those of the source, taken here to give the interval after Q, in days (D) or hours (H), and the number of doses after X. Some doses were run more than once; the values are given in rising order. For survival time, the PubChem record calls one and a half times the control and up active, and a quarter to a half above the control has no call in these data; cut-offs in other NCI protocols can differ.

As for `O=C1N[C@@H]([C@H]2CC[C@H](Cl)CN2)C(=O)N[C@H]1[C@H]1CC[C@H](Cl)CN1`, the survivor count runs as follows: under setting [1], 1 of 8; under setting [2], 0 of 8 and 1 of 8.

Consider `CNNCc1ccc(C(=O)NC(C)C)cc1`, for which the survivor count is, setting by setting: (T/C endpoint: mean tumor weight, dose: 300.0 mg/kg/injection, schedule: Q01DX011 (ip), vehicle: saline, higher T/C = larger tumour) 2 of 8; (T/C endpoint: median survival time, dose: 80.0 mg/kg/injection, schedule: Q01DX011 (ip), vehicle: saline, higher T/C = longer survival) 10 of 10; (T/C endpoint: median survival time, dose: 80.0 mg/kg/injection, schedule: Q01DX012 (ip), vehicle: saline, higher T/C = longer survival) 7 of 10; (T/C endpoint: median survival time, dose: 160.0 mg/kg/injection, schedule: Q01DX011 (ip), vehicle: saline, higher T/C = longer survival) 8 of 10; (T/C endpoint: median survival time, dose: 160.0 mg/kg/injection, schedule: Q01DX012 (ip), vehicle: saline, higher T/C = longer survival) 8 of 10; (T/C endpoint: median survival time, dose: 300.0 mg/kg/injection, schedule: Q01DX011 (ip), vehicle: saline, higher T/C = longer survival) 2 of 8. For the same compound, the survivor count is, setting by setting: (T/C endpoint: median survival time, dose: 320.0 mg/kg/injection, schedule: Q01DX011 (ip), vehicle: saline, higher T/C = longer survival) 0 of 10; (T/C endpoint: median survival time, dose: 320.0 mg/kg/injection, schedule: Q01DX012 (ip), vehicle: saline, higher T/C = longer survival) 7 of 10; (T/C endpoint: median survival time, dose: 640.0 mg/kg/injection, schedule: Q01DX011 (ip), vehicle: saline, higher T/C = longer survival) 0 of 10; (T/C endpoint: median survival time, dose: 640.0 mg/kg/injection, schedule: Q01DX012 (ip), vehicle: saline, higher T/C = longer survival) 0 of 10.

Regarding `O=[As]O`, the survivor count is recorded as 2 of 8 under setting [1]; 2 of 8 under setting [2]; 0 of 8 under setting [3]; 0 of 8 (T/C endpoint: median survival time, dose: 16.0 mg/kg/injection, schedule: Q01DX011 (ip), vehicle: saline, higher T/C = longer survival); 0 of 8 (T/C endpoint: median survival time, dose: 32.0 mg/kg/injection, schedule: Q01DX011 (ip), vehicle: saline, higher T/C = longer survival).

For `CC(=O)c1ccc(Oc2ccc(/C(C)=N\N=C(N)N)cc2)cc1`, the survivor count is 8 of 8 (T/C endpoint: median survival time, dose: 25.0 mg/kg/injection, schedule: Q01DX011 (ip), vehicle: saline with Tween-80, higher T/C = longer survival); 0 of 8 under setting [4]; 0 of 8 (T/C endpoint: median survival time, dose: 100.0 mg/kg/injection, schedule: Q01DX011 (ip), vehicle: saline with Tween-80, higher T/C = longer survival).

On to `CCCCCCCCCCCCCCCCCC[N+](C)(C)C` (tested in a mixture with another compound), for which the survivor count is recorded as 2 of 8 under setting [1]; 7 of 8 (T/C endpoint: median survival time, dose: 1.0 mg/kg/injection, schedule: Q01DX011 (ip), vehicle: saline, higher T/C = longer survival); 2 of 8 under setting [2]; 0 of 8 under setting [3].

As to `O=[N+]([O-])c1cc(S(=O)(=O)OCC2CO2)ccc1Cl` (stereo unspecified), the survivor count under setting [4] is given as 0 of 8.

In the case of `CN(C)/N=N/c1nc[nH]c1C(N)=O`, the survivor count runs as follows: (T/C endpoint: mean tumor weight, dose: 400.0 mg/kg/injection, schedule: Q01DX011 (ip), vehicle: steroid suspending solution, higher T/C = larger tumour) 1 of 8; (T/C endpoint: median survival time, dose: 108.0 mg/kg/injection, schedule: Q01DX011 (ip), vehicle: Klucel (hydroxypropylcellulose) (HPC), higher T/C = longer survival) 8 of 8; (T/C endpoint: median survival time, dose: 180.0 mg/kg/injection, schedule: Q01DX010 (ip), vehicle: Klucel (hydroxypropylcellulose) (HPC), higher T/C = longer survival) 8 of 8; (T/C endpoint: median survival time, dose: 180.0 mg/kg/injection, schedule: Q01DX011 (ip), vehicle: Klucel (hydroxypropylcellulose) (HPC), higher T/C = longer survival) 7 of 8; (T/C endpoint: median survival time, dose: 200.0 mg/kg/injection, schedule: Q01DX009 (ip), vehicle: Klucel (hydroxypropylcellulose) (HPC), higher T/C = longer survival) 10 of 10; (T/C endpoint: median survival time, dose: 300.0 mg/kg/injection, schedule: Q01DX010 (ip), vehicle: Klucel (hydroxypropylcellulose) (HPC), higher T/C = longer survival) 8 of 8. The survivor count is 5 of 8 (T/C endpoint: median survival time, dose: 300.0 mg/kg/injection, schedule: Q01DX011 (ip), vehicle: Klucel (hydroxypropylcellulose) (HPC), higher T/C = longer survival); 10 of 10 (T/C endpoint: median survival time, dose: 400.0 mg/kg/injection, schedule: Q01DX009 (ip), vehicle: Klucel (hydroxypropylcellulose) (HPC), higher T/C = longer survival); 1 of 8 (T/C endpoint: median survival time, dose: 400.0 mg/kg/injection, schedule: Q01DX011 (ip), vehicle: steroid suspending solution, higher T/C = longer survival); 8 of 8 (T/C endpoint: median survival time, dose: 500.0 mg/kg/injection, schedule: Q01DX010 (ip), vehicle: Klucel (hydroxypropylcellulose) (HPC), higher T/C = longer survival); 3 of 8 (T/C endpoint: median survival time, dose: 500.0 mg/kg/injection, schedule: Q01DX011 (ip), vehicle: Klucel (hydroxypropylcellulose) (HPC), higher T/C = longer survival); 0 of 10 (T/C endpoint: median survival time, dose: 800.0 mg/kg/injection, schedule: Q01DX009 (ip), vehicle: Klucel (hydroxypropylcellulose) (HPC), higher T/C = longer survival). For the same compound, the T/C reads like this: (T/C endpoint: median survival time, dose: 23.0 mg/kg/injection, schedule: Q01DX010 (ip), vehicle: Klucel (hydroxypropylcellulose) (HPC), evaluated on day 12, higher T/C = longer survival) 132 % of control; (T/C endpoint: median survival time, dose: 23.0 mg/kg/injection, schedule: Q01DX010 (ip), vehicle: Klucel (hydroxypropylcellulose) (HPC), evaluated on day 40, higher T/C = longer survival) 131 % of control.

Consider `CN(Cc1ccccc1)/N=N/c1nc[nH]c1C(N)=O`, for which the survivor count is reported as 5 of 8 (T/C endpoint: mean tumor weight, dose: 100.0 mg/kg/injection, schedule: Q01DX011 (ip), vehicle: saline, higher T/C = larger tumour); 5 of 8 (T/C endpoint: median survival time, dose: 100.0 mg/kg/injection, schedule: Q01DX011 (ip), vehicle: saline, higher T/C = longer survival); 0 of 8 (T/C endpoint: median survival time, dose: 200.0 mg/kg/injection, schedule: Q01DX011 (ip), vehicle: saline, higher T/C = longer survival); 0 of 8 (T/C endpoint: median survival time, dose: 400.0 mg/kg/injection, schedule: Q01DX011 (ip), vehicle: saline, higher T/C = longer survival).

In the case of `NC(Cc1c[nH]c2ccc(N(CCCl)CCCl)cc12)C(=O)O` (stereo unspecified), the T/C reads like this: (T/C endpoint: median survival time, dose: 0.12 mg/kg/injection, schedule: Q01DX011 (ip), vehicle: acid diluted with saline, higher T/C = longer survival) 138 % of control; (T/C endpoint: median survival time, dose: 1.0 mg/kg/injection, schedule: Q01DX011 (ip), vehicle: acid diluted with saline, higher T/C = longer survival) 133 % of control. Besides, the survivor count (T/C endpoint: median survival time, dose: 2.0 mg/kg/injection, schedule: Q01DX011 (ip), vehicle: acid diluted with saline, higher T/C = longer survival) is reported as 5 of 8 and the survivor count (T/C endpoint: median survival time, dose: 2.0 mg/kg/injection, schedule: Q01DX011 (ip), vehicle: other, higher T/C = longer survival) was 8 of 8.

Turning to `Cc1cc(C)c(NC(=O)N(CCCl)N=O)cc1C`, the survivor count was 6 of 8 (T/C endpoint: median survival time, dose: 23.0 mg/kg/injection, schedule: Q07DX003 (ip), vehicle: saline + alcohol, higher T/C = longer survival); 6 of 8 (T/C endpoint: median survival time, dose: 39.0 mg/kg/injection, schedule: Q07DX003 (ip), vehicle: saline + alcohol, higher T/C = longer survival); 6 of 8 (T/C endpoint: median survival time, dose: 65.0 mg/kg/injection, schedule: Q07DX003 (ip), vehicle: saline + alcohol, higher T/C = longer survival); 7 of 8 (T/C endpoint: median survival time, dose: 108.0 mg/kg/injection, schedule: Q07DX003 (ip), vehicle: saline + alcohol, higher T/C = longer survival); 4 of 8 (T/C endpoint: median survival time, dose: 180.0 mg/kg/injection, schedule: Q07DX003 (ip), vehicle: saline + alcohol, higher T/C = longer survival).

As to `N=c1ccn2c(n1)OC1C(OP(=O)(O)O)C(CO)OC12` (stereo unspecified), the survivor count runs as follows: (T/C endpoint: mean tumor weight (est.), dose: 400.0 mg/kg/injection, schedule: Q01DX011 (oral), vehicle: water, higher T/C = larger tumour) 5 of 8; (T/C endpoint: mean tumor weight (est.), dose: 800.0 mg/kg/injection, schedule: Q01DX011 (oral), vehicle: water, higher T/C = larger tumour) 3 of 8; (T/C endpoint: median survival time, dose: 400.0 mg/kg/injection, schedule: Q01DX011 (oral), vehicle: water, higher T/C = longer survival) 5 of 8; (T/C endpoint: median survival time, dose: 800.0 mg/kg/injection, schedule: Q01DX011 (oral), vehicle: water, higher T/C = longer survival) 3 of 8.
